Reference: PubChem BioAssay AID602196 (INSERM, 2012)
Aim: 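Modifiers of cisplatin sensitivity in A549 cells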. Cell system: human A549 lung cancer cells. Reagent: siRNA pair against human genes. Time to read-out: 48 h transfection before cisplatin; time from cisplatin to read-out not stated. Conditions: cisplatin at a dose killing half of control-siRNA cells; exact dose and duration not given. Detection: 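Shift in cisplatin death relative to control siRNA, from -50 (all cells die) to +50 (no cells die); siRNAs harmful on their own scored 0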. Direction: two-siRNA summed score (-2 to +2): higher = both siRNAs protect from cisplatin killing; -2 means both sensitise; mean protection from cisplatin (shift in death) and protection from cisplatin (shift in death), siRNA C and protection from cisplatin (shift in death), siRNA D: higher = protection from cisplatin killing. Rule for the call: 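siRNAs harmful alone (LDH or WST-1) get 0; others get +1 for less and -1 for more cisplatin killing; genes are active when the two siRNAs give the same sign, summing to ±2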. Calls: active = both siRNAs shift cisplatin killing the same way; inactive = no consistent shift, or siRNA harmful alone.
In all, the deposit lists about 23,000 reagents; below is an unselected part. 455 of them (2%) were called active. 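Active includes both protection and sensitisation; some change values fall well beyond the stated -50 to +50 range.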 Entries without a mark were called inactive. The numbers tell different reagents against one gene apart. Not stated in the record: the amount of reagent.

gene	reagent no.	two-siRNA summed score (-2 to +2)	mean protection from cisplatin (shift in death) (%)	protection from cisplatin (shift in death), siRNA C (%)	protection from cisplatin (shift in death), siRNA D (%)
SPIDR (scaffold protein involved in DNA repair)	1	-1	-8.9	-25.7	7.8
LOC339453	1	0	1	3	-1
CDH6 (cadherin 6)	1	1	17.6	15.6	19.5
FERMT1 (FERM domain containing kindlin 1)	1	0	4.6	1.4	7.7
DCAF1 (DDB1 and CUL4 associated factor 1)	1	0	19.6	30.3	8.8
ELF3 (E74 like ETS transcription factor 3)	1	-1	-6.7	-4.4	-9
LMBR1 (limb development membrane protein 1)	1	0	9	13.4	4.6
RBPJ	1	0	4.9	7	2.8
RAP1GAP2 (RAP1 GTPase activating protein 2)	1	0	7.1	16.9	-2.7
UFSP2 (UFM1 specific peptidase 2)	1	0	0.7	4.3	-2.9
OR2M3 (olfactory receptor family 2 subfamily M member 3)	1	-1	-6.1	2.5	-14.8
HOXC9 (homeobox C9)	1	1	16.6	-2.7	35.9
ADTRP (androgen dependent TFPI regulating protein)	1	0	1.9	1.5	2.3
C6orf136 (chromosome 6 open reading frame 136)	1	0	8	-0.1	16.1
IGF2 (insulin like growth factor 2)	1	-1	-5.2	4.3	-14.7
IGF2 (insulin like growth factor 2)	2	0	10.8	3.3	18.2
NMNAT1 (nicotinamide nucleotide adenylyltransferase 1)	1	0	0.6	11.3	-10.1
FAM90A3 (family with sequence similarity 90 member A3)	1	0	26.8	35.7	17.9
LOC150084	1	0	-4.7	-2.2	-7.1
DLG4 (discs large MAGUK scaffold protein 4)	1	0	-3.5	7.3	-14.3
COPA (coat protein complex I subunit alpha)	1	0	6.4	4.1	8.6
C22orf46P (chromosome 22 open reading frame 46, pseudogene)	1	1	9.2	2.4	16.1
LINC02076 (long independently transcribed non-coding RNA 2076)	1	0	13.5	9	18.1
TMEM134 (transmembrane protein 134)	1	0	4.8	-6.9	16.6
ABRAXAS2 (abraxas 2, BRISC complex subunit)	1	1	11	-1.2	23.3
EPB41L5 (erythrocyte membrane protein band 4.1 like 5)	1	0	-1.5	10.3	-13.4
LOC441251	1	0	4	2.5	5.4
PP13004 (retired record)	1	0	8.5	7.8	9.3
HOPX (HOP homeobox)	1	1	13.1	14.8	11.4
WDTC1 (WD and tetratricopeptide repeats 1)	1	0	15.6	13.7	17.4
LOC441094	1	0	5.8	9.3	2.3
COQ10A (coenzyme Q10A)	1	0	0.6	13.8	-12.7
OR5B21 (olfactory receptor family 5 subfamily B member 21)	1	1	17.2	23.8	10.6
C21orf58 (chromosome 21 open reading frame 58)	1	0	-8.3	-11.5	-5.1
COL6A5 (collagen type VI alpha 5 chain)	1	1	13.2	12.5	13.9
FUT4 (fucosyltransferase 4)	1	-1	-6.2	-12.7	0.3
HUS1 (HUS1 checkpoint clamp component)	1	-1	-6.5	0.9	-13.9
ACD	1	0	8.3	11.7	5
UGP2 (UDP-glucose pyrophosphorylase 2)	1	1	13.4	5.5	21.3
TCAIM (T cell activation inhibitor, mitochondrial)	1	1	27.3	22.7	31.9
FBXL19-AS1 (FBXL19 antisense RNA 1)	1	-1	-9.1	6.2	-24.4
TMEM126A (transmembrane protein 126A)	1	0	4.7	6.6	2.7
SET (SET nuclear proto-oncogene)	1	0	13.3	16.5	10.1
JUND (JunD proto-oncogene, AP-1 transcription factor subunit)	1	-1	-9.3	-2.2	-16.4
ZNF652 (zinc finger protein 652)	1	0	7.1	7.1	7.2
MYO6 (myosin VI)	1	0	3	13.7	-7.7
SLC38A10	1	0	2.6	-0.7	6
TNFRSF4 (TNF receptor superfamily member 4)	1	0	8.6	3	14.2
DUSP8 (dual specificity phosphatase 8)	1	1	17.2	1.9	32.6
LOC147941	1	0	1.8	15.9	-12.3
BAG4 (BAG cochaperone 4)	1	0	12.9	5.9	20
PEX16 (peroxisomal biogenesis factor 16)	1	0	21.7	12.6	30.7
CHRNA5 (cholinergic receptor nicotinic alpha 5 subunit)	1	0	8.3	-3	19.7
OLIG3 (oligodendrocyte transcription factor 3)	1	0	8.9	10.3	7.5
LOC440171	1	1	8.2	4.8	11.6
STK11 (serine/threonine kinase 11)	1	2 (active)	24.7	25.3	24.2
CBLL1 (Cbl proto-oncogene like 1)	1	0	16.4	12.9	19.8

Look-ups from above.
Under “protection from cisplatin (shift in death), siRNA D (%)”, OR2M3 (olfactory receptor family 2 subfamily M member 3) has -14.8
Value for COPA (coat protein complex I subunit alpha) under “two-siRNA summed score (-2 to +2)”: 0
Under “two-siRNA summed score (-2 to +2)”, NMNAT1 (nicotinamide nucleotide adenylyltransferase 1) reads 0
C6orf136 (chromosome 6 open reading frame 136), protection from cisplatin (shift in death), siRNA C (%) = -0.1
Entry for C21orf58 (chromosome 21 open reading frame 58) in “protection from cisplatin (shift in death), siRNA C (%)”: -11.5
Under “mean protection from cisplatin (shift in death) (%)”, MYO6 (myosin VI) is entered as 3
